Laboratory results reported in US20110131688A1.
These are yes or no findings as the source states them, for the method shown. Some entries that bind do so weakly or less than the wild type.

Assays:
[1] = biological target: T1, EIN3 full-length protein (ETHYLENE-…3 transcription factor) (Arabidopsis) (UniProt O24606); experiment: yeast two-hybrid, filter-lift beta-galactosidase
T1 sequence: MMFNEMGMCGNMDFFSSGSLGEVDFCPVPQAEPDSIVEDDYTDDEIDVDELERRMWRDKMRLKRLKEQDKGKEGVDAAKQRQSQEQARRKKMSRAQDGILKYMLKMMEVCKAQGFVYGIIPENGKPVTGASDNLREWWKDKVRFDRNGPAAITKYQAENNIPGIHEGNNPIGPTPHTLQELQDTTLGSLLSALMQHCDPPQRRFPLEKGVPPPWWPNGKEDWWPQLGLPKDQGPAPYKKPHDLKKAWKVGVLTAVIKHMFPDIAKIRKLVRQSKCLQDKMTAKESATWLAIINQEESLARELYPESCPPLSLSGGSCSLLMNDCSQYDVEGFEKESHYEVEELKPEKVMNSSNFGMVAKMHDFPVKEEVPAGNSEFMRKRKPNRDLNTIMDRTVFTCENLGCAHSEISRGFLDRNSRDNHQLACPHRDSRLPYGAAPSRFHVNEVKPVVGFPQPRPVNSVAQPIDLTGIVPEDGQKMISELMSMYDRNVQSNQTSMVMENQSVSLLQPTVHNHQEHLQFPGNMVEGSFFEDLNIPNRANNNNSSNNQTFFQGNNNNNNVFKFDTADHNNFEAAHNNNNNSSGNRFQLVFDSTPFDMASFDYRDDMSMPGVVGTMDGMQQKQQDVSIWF

[2] = biological target: T1, EIN3 full-length protein (ETHYLENE-…3 transcription factor) (Arabidopsis); experiment: yeast two-hybrid

B1: EBF2 C-terminal LRR domain (protein)
chain: EEGEGFLSRSLEGKKATDLRLAAIAVGTSSRGGLGKLQIRGSGFESKVTDVGLGAVAHGCPSLRIVSLWNLPAVSDLGLSEIARSCPMIEKLDLSRCPGITDSGLVAIAENCVNLSDLTIDSCSGVGNEGLRAIARRCVNLRSISIRSCPRIGDQGVAFLLAQAGSYLTKVKLQMLNVSGLSLAVIGHYGAAVTDLVLHGLQGVNEKGFWVMGNAKGLKKLKSLSVMSCRGMTDVGLEAVGNGCPDLKHVSLNKCLLVSGKGLVALAKSALSLESLKLEECHRINQFGLMGFLMNCGSKLKAFSLANCLGISDFNSESSLPSPSCSSLRSLSIRCCPGFGDASLAFLGKFCHQLQDVELCGLNGVTDAGVRELLQSNNVGLVKVNLSECINVSDNTVSAISVCHGRTLESLNLDGCKNITNASLVAVAKNCYSVNDLDISNTLVSDHGIKALASSPNHLNLQVLSIGGCSSITDKSKACIQKLGRTLLGLNIQRCGRISSSTVDTLLENLWRCDILY
With B1 the binding [1] was “binds” and the binding [2] was “binds”.

B2: EBF1 C-terminal LRR domain (protein)
chain: PSKITEDGDDCEGCLSRSLDGKKATDVRLAAIAVGTAGRGGLGKLSIRGSNSAKVSDLGLRSIGRSCPSLGSLSLWNVSTITDNGLLEIAEGCAQLEKLELNRCSTITDKGLVAIAKSCPNLTELTLEACSRIGDEGLLAIARSCSKLKSVSIKNCPLVRDQGIASLLSNTTCSLAKLKLQMLNVTDVSLAVVGHYGLSITDLVLAGLSHVSEKGFWVMGNGVGLQKLNSLTITACQGVTDMGLESVGKGCPNMKKAIISKSPLLSDNGLVSFAKASLSLESLQLEECHRVTQFGFFGSLLNCGEKLKAFSLVNCLSIRDLTTGLPASSHCSALRSLSIRNCPGFGDANLAAIGKLCPQLEDIDLCGLKGITESGFLHLIQSSLVKINFSGCSNLTDRVISAITARNGWTLEVLNIDGCSNITDASLVSIAANCQILSDLDISKCAISDSGIQALASSDKLKLQILSVAGCSMVTDKSLPAIVGLGSTLLGLNLQQCRSISNSTVDFLVERLYKCDILS
In the case of B2, the binding [1] is reported as “binds” and the binding [2] is reported as “binds”.
